Measured data: PubChem BioAssay AID1224830 (NIAID, 2016)

- Purpose: 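Genes whose knock-down alters the TNF-alpha reporter response to LPS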 (primary screen)
- Cell system: human THP-1 monocytic leukaemia cells, TNF dual-luciferase reporter clone, PMA-differentiated to macrophage-like cells
- Knock-down reagent: siRNA pool against human genes, 50 nM
- Duration: LPS for 4 h, given about 3 days after siRNA transfection
- Challenge: bacterial LPS (TLR4 ligand), 10 ng/ml
- Read-out: 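Ratio of firefly to renilla light, scaled to the plate median and expressed as a robust z-score per replicate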
- Direction: TNF reporter robust z-score: higher = stronger TNF reporter response to LPS
- Active means: 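a well is active when its z-score exceeds 2.8 or falls below -1.5; control wells carry no call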
The deposit covers about 18,000 reagents; this is a random part of them. About 2,900 of them (16%) were called active. 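Calls are made per well; low scores hint the gene aids the LPS response, high scores that it dampens it.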 Repeated entries: four replicate wells of each siRNA pool. No sequences are given here.

CCDC80
- TNF reporter robust z-score: -0.08
- activity call: inactive

CCDC80
- TNF reporter robust z-score: -0.46
- activity call: inactive

CCDC80
- TNF reporter robust z-score: -1.14
- activity call: inactive

CCDC80
- TNF reporter robust z-score: 0.35
- activity call: inactive

ACBD7
- TNF reporter robust z-score: 1.18
- activity call: inactive

ACBD7
- TNF reporter robust z-score: 1.39
- activity call: inactive

ACBD7
- TNF reporter robust z-score: -0.13
- activity call: inactive

ACBD7
- TNF reporter robust z-score: 0.65
- activity call: inactive

TRUB2
- TNF reporter robust z-score: -0.74
- activity call: inactive

TRUB2
- TNF reporter robust z-score: 1.03
- activity call: inactive

TRUB2
- TNF reporter robust z-score: -0.2
- activity call: inactive

TRUB2
- TNF reporter robust z-score: 0.85
- activity call: inactive

ARHGAP36
- TNF reporter robust z-score: -1.52
- activity call: active

ARHGAP36
- TNF reporter robust z-score: -0.91
- activity call: inactive

ARHGAP36
- TNF reporter robust z-score: -1.29
- activity call: inactive

ARHGAP36
- TNF reporter robust z-score: -1.24
- activity call: inactive

XPR1
- TNF reporter robust z-score: 1.88
- activity call: inactive

XPR1
- TNF reporter robust z-score: 1.75
- activity call: inactive

XPR1
- TNF reporter robust z-score: 0.99
- activity call: inactive

XPR1
- TNF reporter robust z-score: 1.38
- activity call: inactive

CAND1
- TNF reporter robust z-score: -1.25
- activity call: inactive

CAND1
- TNF reporter robust z-score: -0.78
- activity call: inactive

CAND1
- TNF reporter robust z-score: -1.12
- activity call: inactive

CAND1
- TNF reporter robust z-score: -0.34
- activity call: inactive

FRRS1
- TNF reporter robust z-score: -0.18
- activity call: inactive

FRRS1
- TNF reporter robust z-score: 0.71
- activity call: inactive

FRRS1
- TNF reporter robust z-score: 0.14
- activity call: inactive

FRRS1
- TNF reporter robust z-score: 0.16
- activity call: inactive

RXRB
- TNF reporter robust z-score: -0.95
- activity call: inactive

RXRB
- TNF reporter robust z-score: -0.66
- activity call: inactive

RXRB
- TNF reporter robust z-score: -0.36
- activity call: inactive

RXRB
- TNF reporter robust z-score: 0.42
- activity call: inactive

RBMS1
- TNF reporter robust z-score: 3.76
- activity call: active

RBMS1
- TNF reporter robust z-score: 0.33
- activity call: inactive

RBMS1
- TNF reporter robust z-score: 4.07
- activity call: active

RBMS1
- TNF reporter robust z-score: 1.96
- activity call: inactive

ACTR3
- TNF reporter robust z-score: -0.08
- activity call: inactive

ACTR3
- TNF reporter robust z-score: 0
- activity call: inactive

ACTR3
- TNF reporter robust z-score: 0.49
- activity call: inactive

ACTR3
- TNF reporter robust z-score: 0.03
- activity call: inactive

TCEAL2
- TNF reporter robust z-score: 0
- activity call: inactive

TCEAL2
- TNF reporter robust z-score: 1.75
- activity call: inactive

TCEAL2
- TNF reporter robust z-score: 1.53
- activity call: inactive

TCEAL2
- TNF reporter robust z-score: 2.96
- activity call: active

RAB11FIP3
- TNF reporter robust z-score: 0.62
- activity call: inactive

RAB11FIP3
- TNF reporter robust z-score: 0.4
- activity call: inactive

RAB11FIP3
- TNF reporter robust z-score: -1.28
- activity call: inactive

RAB11FIP3
- TNF reporter robust z-score: -1.46
- activity call: inactive

Records above whose target name begins with T or t:
TRUB2
- TNF reporter robust z-score: -0.74
- activity call: inactive

TRUB2
- TNF reporter robust z-score: 1.03
- activity call: inactive

TRUB2
- TNF reporter robust z-score: -0.2
- activity call: inactive

TRUB2
- TNF reporter robust z-score: 0.85
- activity call: inactive

TCEAL2
- TNF reporter robust z-score: 0
- activity call: inactive

TCEAL2
- TNF reporter robust z-score: 1.75
- activity call: inactive

TCEAL2
- TNF reporter robust z-score: 1.53
- activity call: inactive

TCEAL2
- TNF reporter robust z-score: 2.96
- activity call: active
